{"sequences": {"note": "By UniProt entry, the sequences of proteins in these tests, tags left out. Where a name states a change or a piece, a line headed by the entry shows the natural chain unless it says otherwise.", "UniProt Q9H553": "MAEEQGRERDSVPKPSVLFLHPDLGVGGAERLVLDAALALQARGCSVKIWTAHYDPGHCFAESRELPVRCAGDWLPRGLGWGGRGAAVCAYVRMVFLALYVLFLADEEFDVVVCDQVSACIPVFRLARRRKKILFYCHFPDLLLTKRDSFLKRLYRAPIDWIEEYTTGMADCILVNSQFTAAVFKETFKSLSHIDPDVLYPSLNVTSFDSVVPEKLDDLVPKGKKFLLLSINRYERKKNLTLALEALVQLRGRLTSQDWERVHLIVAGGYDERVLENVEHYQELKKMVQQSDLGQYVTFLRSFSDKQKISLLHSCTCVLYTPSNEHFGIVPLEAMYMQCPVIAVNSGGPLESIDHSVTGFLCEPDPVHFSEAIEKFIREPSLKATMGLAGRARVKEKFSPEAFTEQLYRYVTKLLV", "UniProt Q9BXX2": "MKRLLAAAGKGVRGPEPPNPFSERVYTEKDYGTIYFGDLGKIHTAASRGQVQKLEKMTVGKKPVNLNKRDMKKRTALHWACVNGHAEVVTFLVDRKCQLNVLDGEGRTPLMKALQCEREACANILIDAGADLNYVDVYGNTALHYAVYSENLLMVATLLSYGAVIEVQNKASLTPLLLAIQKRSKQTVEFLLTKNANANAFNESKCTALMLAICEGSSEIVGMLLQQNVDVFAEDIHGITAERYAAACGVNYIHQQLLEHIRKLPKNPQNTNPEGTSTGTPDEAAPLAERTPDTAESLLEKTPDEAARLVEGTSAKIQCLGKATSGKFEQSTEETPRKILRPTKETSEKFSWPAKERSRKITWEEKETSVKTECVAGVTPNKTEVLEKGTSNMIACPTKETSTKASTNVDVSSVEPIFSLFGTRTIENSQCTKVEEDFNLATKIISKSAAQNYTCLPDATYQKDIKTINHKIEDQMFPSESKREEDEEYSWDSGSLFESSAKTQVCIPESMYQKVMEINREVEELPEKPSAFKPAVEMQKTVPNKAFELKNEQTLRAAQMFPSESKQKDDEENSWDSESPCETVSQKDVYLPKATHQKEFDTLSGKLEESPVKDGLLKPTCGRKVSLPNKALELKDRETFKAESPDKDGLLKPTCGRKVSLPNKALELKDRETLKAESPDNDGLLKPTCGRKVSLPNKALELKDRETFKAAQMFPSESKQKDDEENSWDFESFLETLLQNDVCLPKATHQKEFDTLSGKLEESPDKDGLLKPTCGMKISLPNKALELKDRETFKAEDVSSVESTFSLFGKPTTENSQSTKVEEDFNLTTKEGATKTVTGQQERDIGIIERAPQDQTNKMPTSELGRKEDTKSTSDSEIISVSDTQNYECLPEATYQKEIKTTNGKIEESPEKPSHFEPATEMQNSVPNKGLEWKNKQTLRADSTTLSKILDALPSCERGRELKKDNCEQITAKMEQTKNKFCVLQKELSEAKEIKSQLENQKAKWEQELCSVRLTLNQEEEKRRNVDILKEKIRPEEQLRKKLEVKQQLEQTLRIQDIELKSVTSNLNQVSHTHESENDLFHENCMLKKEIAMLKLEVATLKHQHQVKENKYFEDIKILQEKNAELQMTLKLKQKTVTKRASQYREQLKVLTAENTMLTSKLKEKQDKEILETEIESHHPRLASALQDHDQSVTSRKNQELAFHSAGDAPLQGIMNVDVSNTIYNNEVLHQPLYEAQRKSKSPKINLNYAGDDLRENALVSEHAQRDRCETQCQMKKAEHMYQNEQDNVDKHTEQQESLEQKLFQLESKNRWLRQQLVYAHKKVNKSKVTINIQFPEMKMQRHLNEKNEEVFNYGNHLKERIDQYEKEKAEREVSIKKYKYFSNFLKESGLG", "UniProt Q9P2R3": "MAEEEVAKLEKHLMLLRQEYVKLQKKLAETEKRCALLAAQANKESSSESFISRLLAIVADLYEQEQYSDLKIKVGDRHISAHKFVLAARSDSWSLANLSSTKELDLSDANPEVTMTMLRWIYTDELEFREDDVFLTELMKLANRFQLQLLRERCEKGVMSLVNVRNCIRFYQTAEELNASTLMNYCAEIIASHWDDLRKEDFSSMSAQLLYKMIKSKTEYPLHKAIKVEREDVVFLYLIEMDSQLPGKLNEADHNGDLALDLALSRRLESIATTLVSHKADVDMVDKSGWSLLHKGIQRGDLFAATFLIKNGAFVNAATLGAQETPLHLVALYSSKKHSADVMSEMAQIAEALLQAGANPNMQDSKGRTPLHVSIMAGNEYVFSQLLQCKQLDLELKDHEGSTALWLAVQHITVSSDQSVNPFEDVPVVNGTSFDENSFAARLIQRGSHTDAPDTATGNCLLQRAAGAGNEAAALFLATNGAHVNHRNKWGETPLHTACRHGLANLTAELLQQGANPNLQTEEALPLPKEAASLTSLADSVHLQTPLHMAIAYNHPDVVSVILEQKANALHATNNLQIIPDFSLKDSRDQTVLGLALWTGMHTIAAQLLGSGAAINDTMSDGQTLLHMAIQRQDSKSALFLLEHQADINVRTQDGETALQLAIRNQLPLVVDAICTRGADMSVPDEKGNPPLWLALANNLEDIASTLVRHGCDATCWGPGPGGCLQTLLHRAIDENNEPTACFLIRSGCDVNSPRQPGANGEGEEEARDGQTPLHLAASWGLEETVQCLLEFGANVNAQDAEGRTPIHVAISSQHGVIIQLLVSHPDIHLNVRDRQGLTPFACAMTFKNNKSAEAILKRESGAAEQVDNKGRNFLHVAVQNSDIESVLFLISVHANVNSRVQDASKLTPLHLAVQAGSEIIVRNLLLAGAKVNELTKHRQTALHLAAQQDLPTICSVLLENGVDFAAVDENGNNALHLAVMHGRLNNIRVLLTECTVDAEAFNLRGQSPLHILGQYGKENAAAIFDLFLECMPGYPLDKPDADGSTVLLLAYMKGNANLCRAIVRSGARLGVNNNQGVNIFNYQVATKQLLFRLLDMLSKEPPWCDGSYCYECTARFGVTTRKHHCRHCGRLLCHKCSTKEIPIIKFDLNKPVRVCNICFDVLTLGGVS", "UniProt P30038": "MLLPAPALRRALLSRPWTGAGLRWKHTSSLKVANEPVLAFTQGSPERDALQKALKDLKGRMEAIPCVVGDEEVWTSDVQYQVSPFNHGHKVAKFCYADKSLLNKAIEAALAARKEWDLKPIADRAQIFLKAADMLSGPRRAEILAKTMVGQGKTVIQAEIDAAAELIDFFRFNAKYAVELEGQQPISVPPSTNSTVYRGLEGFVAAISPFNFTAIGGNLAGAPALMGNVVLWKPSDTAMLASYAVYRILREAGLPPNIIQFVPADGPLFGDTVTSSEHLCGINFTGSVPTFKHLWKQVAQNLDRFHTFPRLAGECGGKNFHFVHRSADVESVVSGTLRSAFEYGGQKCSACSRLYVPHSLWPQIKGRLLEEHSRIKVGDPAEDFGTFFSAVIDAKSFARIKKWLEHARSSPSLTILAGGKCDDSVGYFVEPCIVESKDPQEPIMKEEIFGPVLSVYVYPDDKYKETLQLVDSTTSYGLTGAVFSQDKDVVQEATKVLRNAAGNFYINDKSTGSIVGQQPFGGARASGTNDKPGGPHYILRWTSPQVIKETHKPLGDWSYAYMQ", "UniProt P49189": "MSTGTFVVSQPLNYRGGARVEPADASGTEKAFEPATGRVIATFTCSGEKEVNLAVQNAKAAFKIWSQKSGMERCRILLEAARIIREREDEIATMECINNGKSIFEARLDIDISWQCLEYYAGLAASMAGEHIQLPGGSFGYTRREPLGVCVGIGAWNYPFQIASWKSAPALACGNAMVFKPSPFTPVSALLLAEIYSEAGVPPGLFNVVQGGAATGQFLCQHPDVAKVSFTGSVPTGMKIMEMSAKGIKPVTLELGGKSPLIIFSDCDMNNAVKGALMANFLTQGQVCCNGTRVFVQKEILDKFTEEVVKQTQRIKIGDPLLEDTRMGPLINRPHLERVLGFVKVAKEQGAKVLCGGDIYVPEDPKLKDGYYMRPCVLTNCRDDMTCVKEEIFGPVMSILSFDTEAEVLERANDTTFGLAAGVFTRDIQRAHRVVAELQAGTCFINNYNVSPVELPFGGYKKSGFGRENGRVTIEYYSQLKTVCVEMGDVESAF", "UniProt Q02252": "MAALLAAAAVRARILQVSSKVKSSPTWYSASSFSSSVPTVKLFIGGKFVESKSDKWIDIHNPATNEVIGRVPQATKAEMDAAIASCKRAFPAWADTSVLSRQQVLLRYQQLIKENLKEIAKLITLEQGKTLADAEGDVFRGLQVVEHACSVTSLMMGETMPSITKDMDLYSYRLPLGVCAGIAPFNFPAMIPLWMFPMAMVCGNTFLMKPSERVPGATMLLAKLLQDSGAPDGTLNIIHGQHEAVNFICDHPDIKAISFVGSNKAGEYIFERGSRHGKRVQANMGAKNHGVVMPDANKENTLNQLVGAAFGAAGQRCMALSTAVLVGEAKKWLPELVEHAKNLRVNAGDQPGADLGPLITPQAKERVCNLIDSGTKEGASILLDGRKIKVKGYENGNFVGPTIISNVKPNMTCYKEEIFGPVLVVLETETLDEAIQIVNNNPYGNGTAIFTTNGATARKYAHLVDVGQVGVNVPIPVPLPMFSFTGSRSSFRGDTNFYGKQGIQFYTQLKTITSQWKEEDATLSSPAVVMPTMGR", "UniProt P31749": "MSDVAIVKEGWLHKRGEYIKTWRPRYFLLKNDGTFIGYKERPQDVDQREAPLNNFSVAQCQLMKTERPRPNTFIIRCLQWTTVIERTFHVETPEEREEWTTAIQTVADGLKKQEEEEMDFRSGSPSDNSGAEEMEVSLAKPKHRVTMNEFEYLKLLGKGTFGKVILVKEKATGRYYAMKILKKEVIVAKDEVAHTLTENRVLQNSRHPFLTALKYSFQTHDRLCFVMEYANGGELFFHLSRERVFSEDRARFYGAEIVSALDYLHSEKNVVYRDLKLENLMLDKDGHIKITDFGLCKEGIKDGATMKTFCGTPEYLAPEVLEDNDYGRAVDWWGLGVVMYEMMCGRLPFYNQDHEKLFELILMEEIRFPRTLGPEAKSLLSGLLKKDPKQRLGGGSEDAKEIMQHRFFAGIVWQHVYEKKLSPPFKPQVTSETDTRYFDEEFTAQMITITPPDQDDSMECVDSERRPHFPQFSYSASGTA", "UniProt P30837": "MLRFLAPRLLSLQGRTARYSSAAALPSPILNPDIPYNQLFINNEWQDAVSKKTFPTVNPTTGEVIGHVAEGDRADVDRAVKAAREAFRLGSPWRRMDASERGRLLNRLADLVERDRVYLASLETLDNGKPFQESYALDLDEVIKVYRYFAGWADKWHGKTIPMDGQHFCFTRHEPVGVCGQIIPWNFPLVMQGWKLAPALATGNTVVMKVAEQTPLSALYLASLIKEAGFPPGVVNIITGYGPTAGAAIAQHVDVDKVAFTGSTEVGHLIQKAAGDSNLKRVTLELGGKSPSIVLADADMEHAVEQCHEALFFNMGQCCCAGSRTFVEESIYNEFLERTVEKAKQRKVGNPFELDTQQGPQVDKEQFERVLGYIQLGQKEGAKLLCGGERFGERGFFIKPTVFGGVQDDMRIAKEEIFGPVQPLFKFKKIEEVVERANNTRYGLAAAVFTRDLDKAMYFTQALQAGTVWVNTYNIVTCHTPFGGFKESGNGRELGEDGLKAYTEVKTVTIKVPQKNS", "UniProt Q9UM13, whole entry, looked up": "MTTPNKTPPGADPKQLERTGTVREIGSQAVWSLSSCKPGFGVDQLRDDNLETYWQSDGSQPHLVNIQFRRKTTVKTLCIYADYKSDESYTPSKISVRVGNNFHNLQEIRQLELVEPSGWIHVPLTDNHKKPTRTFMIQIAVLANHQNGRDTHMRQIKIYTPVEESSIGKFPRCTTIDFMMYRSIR", "UniProt O43747": "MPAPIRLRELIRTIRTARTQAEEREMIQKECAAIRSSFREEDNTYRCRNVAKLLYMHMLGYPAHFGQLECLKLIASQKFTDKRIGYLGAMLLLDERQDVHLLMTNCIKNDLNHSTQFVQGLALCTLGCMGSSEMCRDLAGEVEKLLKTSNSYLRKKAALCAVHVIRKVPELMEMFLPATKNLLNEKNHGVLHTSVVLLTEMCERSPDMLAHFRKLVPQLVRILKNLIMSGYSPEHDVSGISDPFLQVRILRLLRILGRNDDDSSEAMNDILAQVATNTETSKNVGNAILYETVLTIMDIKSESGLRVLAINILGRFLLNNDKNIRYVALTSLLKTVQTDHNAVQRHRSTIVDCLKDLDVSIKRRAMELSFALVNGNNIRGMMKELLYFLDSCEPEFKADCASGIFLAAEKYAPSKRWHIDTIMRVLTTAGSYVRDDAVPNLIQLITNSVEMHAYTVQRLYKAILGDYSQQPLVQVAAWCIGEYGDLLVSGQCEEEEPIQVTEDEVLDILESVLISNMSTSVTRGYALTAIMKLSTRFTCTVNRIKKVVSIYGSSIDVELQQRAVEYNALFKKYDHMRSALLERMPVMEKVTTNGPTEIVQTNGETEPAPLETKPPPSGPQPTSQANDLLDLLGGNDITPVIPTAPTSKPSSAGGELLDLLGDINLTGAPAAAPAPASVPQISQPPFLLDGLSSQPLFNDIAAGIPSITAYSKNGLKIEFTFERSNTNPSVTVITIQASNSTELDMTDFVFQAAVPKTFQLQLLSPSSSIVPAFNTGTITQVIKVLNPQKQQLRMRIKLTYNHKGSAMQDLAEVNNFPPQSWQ"}, "source": "the supplement of paper PMC10849652", "note": "This is one part of the list.", "data": [{"compound": "COC(=O)[C@H](CCSC)NC(=O)C1=C(C=C(C=C1)NC[C@H](CS)N)C2=CC=CC=C2", "experiment": "log2 fold change, soluble protein after heating vs DMSO (PISA); higher = thermal stabilisation; K562 lysate, 10 uM; active = over 0.2 and 3.5 SD of the protein, either way, in both replicates (recomputed)", "summary_of_the_method": "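K562 pellets were dounce-homogenised in PBS pH 7.4 with 1 mM MgCl2, and the crude extract at 1 mg/mL protein was treated with 10 μM compound for 30 min. Aliquots were heated for 3 min across 48°C-58°C, pooled, and brought to 0.5% NP-40 at 4°C; soluble protein was the supernatant after 21,000xg for 90 min. Soluble protein was quantified by TMTpro 16plex LC-MS/MS with channel sums equalised, and reported as log2 fold change in thermal stability against DMSO controls, with values from duplicates.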", "values": [{"target": "ALDH1A1 (UniProt P00352)", "log2 fold change": "inactive: -0.043"}, {"target": "ALDOA (UniProt P04075)", "log2 fold change": "inactive: -0.054"}, {"target": "ALG2 (UniProt Q9H553)", "log2 fold change": "inactive: -0.058"}, {"target": "ANP32B (UniProt Q92688)", "log2 fold change": "inactive: -0.048"}, {"target": "ANKRD30B (UniProt Q9BXX2)", "log2 fold change": "inactive: 0.164"}, {"target": "ANKRD11 (UniProt Q6UB99)", "log2 fold change": "inactive: 0.056"}, {"target": "ANKRD52 (UniProt Q8NB46)", "log2 fold change": "inactive: 0.11"}, {"target": "AP3B2 isoform 4 (UniProt Q13367)", "log2 fold change": "inactive: -0.01"}, {"target": "ALG13 (UniProt Q9NP73)", "log2 fold change": "inactive: -0.082"}, {"target": "ANKFY1 isoform 4 (UniProt Q9P2R3)", "log2 fold change": "inactive: 0.102"}, {"target": "AP4E1 (UniProt Q9UPM8)", "log2 fold change": "inactive: -0.023"}, {"target": "ANKHD1 isoform 6 (UniProt Q8IWZ3)", "log2 fold change": "inactive: 0.002"}, {"target": "ALDH4A1 (UniProt P30038)", "log2 fold change": "inactive: 0.114"}, {"target": "ALDH9A1 isoform 3 (UniProt P49189)", "log2 fold change": "inactive: 0.065"}, {"target": "ALKBH2 (UniProt Q6NS38)", "log2 fold change": "inactive: 0.083"}, {"target": "ALDH6A1 (UniProt Q02252)", "log2 fold change": "inactive: 0.103"}, {"target": "ANAPC5 (UniProt Q9UJX4)", "log2 fold change": "inactive: -0.058"}, {"target": "AKT1 (UniProt P31749)", "log2 fold change": "inactive: 0.093"}, {"target": "ANO10 (UniProt Q9NW15)", "log2 fold change": "inactive: 0.024"}, {"target": "AP1S1 (UniProt P61966)", "log2 fold change": "inactive: 0.016"}, {"target": "ALDH1B1 (UniProt P30837)", "log2 fold change": "inactive: 0.127"}, {"target": "ALDH1L2 (UniProt Q3SY69)", "log2 fold change": "active: 0.288"}, {"target": "ANPEP (UniProt P15144)", "log2 fold change": "inactive: -0.124"}, {"target": "ANXA5 (UniProt P08758)", "log2 fold change": "inactive: 0.049"}, {"target": "ANAPC10 (UniProt Q9UM13)", "log2 fold change": "inactive: -0.066"}, {"target": "ALDH1A2 (UniProt O94788)", "log2 fold change": "inactive: -0.001"}, {"target": "AKT1S1 isoform 3 (UniProt Q96B36)", "log2 fold change": "inactive: 0.036"}, {"target": "ANAPC7 (UniProt Q9UJX3)", "log2 fold change": "inactive: 0.002"}, {"target": "AP1G1 isoform 2 (UniProt O43747)", "log2 fold change": "inactive: 0.005"}, {"target": "AMMECR1L (UniProt Q6DCA0)", "log2 fold change": "inactive: -0.081"}, {"target": "ALG8 (UniProt Q9BVK2)", "log2 fold change": "inactive: -0.09"}, {"target": "ANXA2 isoform 2 (UniProt P07355)", "log2 fold change": "inactive: -0.007"}]}]}
